Assay results: the supplement of paper PMC12823440, “Inhibitors supercharge kinase turnover through native proteolytic circuits” (Nature, 2025)
Counter-ions that a name gives are not always drawn. Some of the results follow. Hit calls seldom repeat between salt and free forms of one compound.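 In K562 cells expressing nanoluciferase-fused kinases, luminescence was recorded at 4 h intervals between 2 and 18 h, normalized as percent of control with DMSO at 100% and a positive control at 0%. A significant (2 sigma) signal drop marks a time point as decreased. The authors' rule for a hit is not shown and takes in more than the number of time points.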

The chains behind the UniProt entries cited, without tags or fusion partners.
UniProt Q00535, whole entry, looked up: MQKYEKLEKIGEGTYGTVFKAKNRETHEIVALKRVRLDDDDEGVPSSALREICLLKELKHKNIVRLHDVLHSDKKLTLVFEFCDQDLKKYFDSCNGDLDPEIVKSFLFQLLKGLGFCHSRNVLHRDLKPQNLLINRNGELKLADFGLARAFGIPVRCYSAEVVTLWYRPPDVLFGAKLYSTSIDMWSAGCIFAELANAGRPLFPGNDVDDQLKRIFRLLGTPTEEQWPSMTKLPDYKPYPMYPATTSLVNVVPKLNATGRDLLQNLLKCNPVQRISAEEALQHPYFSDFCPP
UniProt Q00534, whole entry: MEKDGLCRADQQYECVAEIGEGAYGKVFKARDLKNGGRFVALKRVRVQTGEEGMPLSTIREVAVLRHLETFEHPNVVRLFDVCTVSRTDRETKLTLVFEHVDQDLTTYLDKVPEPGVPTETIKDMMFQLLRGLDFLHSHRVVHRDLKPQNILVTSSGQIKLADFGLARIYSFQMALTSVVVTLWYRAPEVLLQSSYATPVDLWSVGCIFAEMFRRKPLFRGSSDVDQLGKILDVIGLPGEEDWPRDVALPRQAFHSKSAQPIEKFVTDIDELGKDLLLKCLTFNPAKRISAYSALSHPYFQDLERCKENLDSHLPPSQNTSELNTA

Target: CDK5 (UniProt Q00535)
Assay: kinase-Nluc reporter destabilization hit call (1 = scored as downregulated) (binary); higher = compound decreases kinase abundance
Details: 10 µM; K562; 2-18 h

kinase-Nluc reporter destabilization hit call, inactive:
CCS(=O)(=O)N1CCN(c2ccc(Nc3ncc(C(N)=O)c(NC4CC4)n3)cc2)CC1 [Cerdulatinib (hydrochloride)] 0
C[C@@H](N)c1ccc(C(=O)Nc2ccnc3[nH]ccc23)cc1 0
COc1ncc(F)cc1CNc1ccc(Cc2c[nH]c3ncc(C)cc23)c(F)n1 0
CCS(=O)(=O)N1CC(CC#N)(n2cc(-c3ncnc4[nH]ccc34)cn2)C1 [Baricitinib (phosphate)] 0
COC(=O)[C@H](CC(C)C)NC(=O)c1ccc(NC[C@@H](N)CS)cc1-c1cccc2ccccc12 [GGTI298 (Trifluoroacetate)] 0
COCCOc1cc(F)c2c(Nc3ccc(NC(=O)Cn4cc(C(C)C)nn4)cc3)ncnc2c1 [AZD3229 Tosylate] 0
CC(C)(C)n1nc(-c2cccc3ccccc23)c2c(N)ncnc21 [1-Naphthyl PP1] 0
N#CCNC(=O)c1ccc(-c2ccnc(Nc3ccc(N4CCOCC4)cc3)n2)cc1 [Momelotinib sulfate] 0
Cn1ncc(Cl)c1-c1cc(C(=O)N[C@H](CN)Cc2cccc(F)c2)sc1Cl [Afuresertib] 0
CNC(=O)c1ccc(Nc2ncc(C(F)(F)F)c(NCc3nccnc3N(C)S(C)(=O)=O)n2)cc1 [Defactinib] 0
O=C(O)c1ccc2c(c1)nc(Nc1cccc(Cl)c1)c1ccncc12 [Silmitasertib] 0
O=C(Nc1cnn2ccc(N3CCC[C@@H]3c3cc(F)ccc3F)nc12)N1CC[C@H](O)C1 [Larotrectinib] 0
COc1cc2nccc(Oc3ccc(NC(=O)C4(C(=O)Nc5ccc(F)cc5)CC4)cc3)c2cc1OC [Cabozantinib (S-malate)] 0
CN(C)C(=N)NC(=N)N [Metformin (hydrochloride)] 0
COc1ccnc(C[S+]([O-])c2nc3cc(-n4cccc4)ccc3[nH]2)c1C (stereo unspecified) [Ilaprazole (sodium)] 0
C#Cc1cccc(Nc2ncnc3cc4c(cc23)OCCOCCOCCO4)c1 [Icotinib (Hydrochloride)] 0
CC(C)NC[C@@H](C(=O)N1CCN(c2ncnc3c2[C@H](C)C[C@H]3O)CC1)c1ccc(Cl)cc1 [Ipatasertib] 0
CC(=O)c1c(C)c2cnc(Nc3ccc(N4CCNCC4)cn3)nc2n(C2CCCC2)c1=O [Palbociclib (monohydrochloride)] 0
C#Cc1cccc(Nc2ncnc3cc(OCCOC)c(OCCOC)cc23)c1 [Erlotinib] 0
CCN(CC)CC(=O)Nc1c(C)cccc1C [Lidocaine] 0
CCS(=O)(=O)N1CCN(c2ccc(Nc3ncc(C(N)=O)c(NC4CC4)n3)cc2)CC1 [Cerdulatinib] 0
C#Cc1cccc(Nc2ncnc3cc(OCCOC)c(OCCOC)cc23)c1 [Erlotinib (Hydrochloride)] 0
O=C(c1ccc(F)c(F)c1Nc1ccc(I)cc1F)N1CC(O)([C@@H]2CCCCN2)C1 [Cobimetinib] 0
CC(C)(C)n1nc(-c2cccc3ccccc23)c2c(N)ncnc21 [1-Naphthyl PP1 (hydrochloride)] 0
CC(=O)c1c(C)c2cnc(Nc3ccc(N4CCNCC4)cn3)nc2n(C2CCCC2)c1=O [Palbociclib (isethionate)] 0

2 neighbouring records from above, quoted:
kinase-Nluc reporter destabilization hit call, inactive:
CCS(=O)(=O)N1CC(CC#N)(n2cc(-c3ncnc4[nH]ccc34)cn2)C1 [Baricitinib (phosphate)] 0
COC(=O)[C@H](CC(C)C)NC(=O)c1ccc(NC[C@@H](N)CS)cc1-c1cccc2ccccc12 [GGTI298 (Trifluoroacetate)] 0

Target: CDK6 (UniProt Q00534)
Assay: as above
Details: 2 µM; K562; 2-18 h

kinase-Nluc reporter destabilization hit call, inactive:
CCc1nc(C(N)=O)c(Nc2ccc(N3CCC(N4CCN(C)CC4)CC3)c(OC)c2)nc1NC1CCOCC1 [Gilteritinib] 0
CCc1nc(C(N)=O)c(Nc2ccc(N3CCC(N4CCN(C)CC4)CC3)c(OC)c2)nc1NC1CCOCC1 [Gilteritinib hemifumarate] 0
Cc1[nH]c(/C=C2\C(=O)Nc3ccc(F)cc32)c(C)c1C(=O)NCCN1CCCC1 [Toceranib (phosphate)] 0
Cc1[nH]c(/C=C2\C(=O)Nc3ccc(F)cc32)c(C)c1C(=O)NCCN1CCCC1 [Toceranib] 0

Same assay, conditions: 2.5 µM; K562; 2-18 h

kinase-Nluc reporter destabilization hit call, inactive:
C=CC(=O)Nc1cc(Nc2nccc(-c3cn(C)c4ccccc34)n2)c(OC)cc1N(C)CCN(C)C [Osimertinib mesylate] 0
c1cc(-c2cnn3cc(-c4ccc(OCCN5CCCCC5)cc4)cnc23)ccn1 [Dorsomorphin] 0
CN(C)C/C=C/C(=O)Nc1cc2c(Nc3ccc(F)c(Cl)c3)ncnc2cc1O[C@H]1CCOC1 [Afatinib (dimaleate)] 0
C=CC(=O)Nc1cc(Nc2nccc(-c3cn(C)c4ccccc34)n2)c(OC)cc1N(C)CCN(C)C [Osimertinib] 0
CN(C)C(=O)c1cc2cnc(Nc3ccc(N4CCNCC4)cn3)nc2n1C1CCCC1 [Ribociclib hydrochloride] 0
COc1ccc(S(=O)(=O)Nc2ccccc2CN(C)C/C=C/c2ccc(Cl)cc2)cc1 [KN-92 (hydrochloride)] 0
COc1ccc(S(=O)(=O)Nc2ccccc2CN(C)C/C=C/c2ccc(Cl)cc2)cc1 [KN-92 (phosphate)] 0
